Part of at least one peptide drawing is inferred or uncertain, most often the ends. Some compounds share one wording; it may come from a single statement. Ends that are not written are not given here.
Each sequence was assayed on HLA-A24-positive CD8-positive T cells (assay: IFN-γ-producing ability, T cells with peptide-pulsed JTK-LCL cells (ELISA)). Conditions: JTK-LCL cells pulsed with 10 μg/ml peptide, 24 hours; compared with unpulsed JTK-LCL cells (FIG. 4).
Assay type: cell-based, human
With KHNSVTHVF [SEQ ID NO:112] the “production of IFN-γ” value was “production of IFN-γ was confirmed”.
In the case of SKHNSVTHVF [SEQ ID NO:111], the “production of IFN-γ” value is reported as “production of IFN-γ was confirmed”.
With GSGTQLTVL [SEQ ID NO:116] the “production of IFN-γ” value was “production of IFN-γ was confirmed”.
In the case of SLRSRWGRFL [SEQ ID NO:110], the “production of IFN-γ” value is reported as “production of IFN-γ was confirmed”.
In the case of VFGSGTQLT [SEQ ID NO:115], the “production of IFN-γ” value is reported as “production of IFN-γ was confirmed”.

From patent publication US8901082B2, “Immunity-inducing agent and method for detection of cancer” (Toray Industries, Inc., priority 2008, dated 2014)
